Assay results as given in patent publication US4638003A, “1-(4-alkylthiophenyl)-2-(substituted or unsubstituted piperazine-1-yl)-1,3-propanediol, pharmaceutical compositions containing them useful as antiarrhythmic and vasodilating agents” (Zambon S.p.A., priority 1983, dated 1987).

Columns and labels:
[1] = test system: anesthetized rat; assay: coronary dilating activity (coronary spasm induced by Vasopressin, T wave in E.C.G.) in anesthetized rat; assay type: in vivo; conditions: iv, 2 min, i.v. 60 seconds after Vasopressin, T wave restored in 50% of the animals within 2 minutes
Procedure: The evaluation of the coronary dilating activity has been performed with the method of O. Nieschultz, et al. (Arzneim. Forsch. 5, 680, 1955). The coronary spasm induced by Vasopressin corresponds to the flattering of T wave in the E.C.G. The coronary dilating activity of the compounds has been referred as dose effective 50 in restoring the T wave in the 50% of the animals within 2 minutes after the administration. The compounds have been administered intravenously 60 seconds after Vasopressin.

[2] = test system: isolated rabbit aorta (vascular smooth muscle); assay: calcium antagonist activity on isolated rabbit aorta (CaCl2-induced contraction)

## C(=C\c1ccccc1)/CN1CCN(C(c2ccccc2)c2ccccc2)CC1 [Cinnarizine, reference compound]
[1]
  ED50: 0.00086 µmol/kg
[2]; concentration in perfused liquid 10^-5 M
  ratio between the CaCl2 concentration producing the 50% contraction in presence or in absence of various compounds: 22
[2]; concentration in perfused liquid 10^-6 M
  ratio between the CaCl2 concentration producing the 50% contraction in presence or in absence of various compounds: 1
